Results from PubChem BioAssay AID1671190 (National Center for Advancing Translational Sciences (NCATS), 2021).
Several values for one entry are separate records, joined by “and”; a condition that tells them apart may be missing. Identical values can stand only once. Screen size: about 580,000 compounds; about 6,100 (1.1%) were called active. This list was built around the results that the source calls inconclusive (neither active nor inactive); the mix of calls is not that of the screen. Calls follow the shape of the dose curve; as a rule, active = well fitted inhibition curve with a large enough effect; inconclusive = small, poorly fitted or top-dose-only effect, or another doubt; inactive = no such curve, though single readings can be large or run the other way. Potencies beside an inconclusive call are fits to weak or partial responses and may not hold up.

Amino acid sequences for entries named in this document (tags omitted).
UniProt P18054, whole entry, looked up: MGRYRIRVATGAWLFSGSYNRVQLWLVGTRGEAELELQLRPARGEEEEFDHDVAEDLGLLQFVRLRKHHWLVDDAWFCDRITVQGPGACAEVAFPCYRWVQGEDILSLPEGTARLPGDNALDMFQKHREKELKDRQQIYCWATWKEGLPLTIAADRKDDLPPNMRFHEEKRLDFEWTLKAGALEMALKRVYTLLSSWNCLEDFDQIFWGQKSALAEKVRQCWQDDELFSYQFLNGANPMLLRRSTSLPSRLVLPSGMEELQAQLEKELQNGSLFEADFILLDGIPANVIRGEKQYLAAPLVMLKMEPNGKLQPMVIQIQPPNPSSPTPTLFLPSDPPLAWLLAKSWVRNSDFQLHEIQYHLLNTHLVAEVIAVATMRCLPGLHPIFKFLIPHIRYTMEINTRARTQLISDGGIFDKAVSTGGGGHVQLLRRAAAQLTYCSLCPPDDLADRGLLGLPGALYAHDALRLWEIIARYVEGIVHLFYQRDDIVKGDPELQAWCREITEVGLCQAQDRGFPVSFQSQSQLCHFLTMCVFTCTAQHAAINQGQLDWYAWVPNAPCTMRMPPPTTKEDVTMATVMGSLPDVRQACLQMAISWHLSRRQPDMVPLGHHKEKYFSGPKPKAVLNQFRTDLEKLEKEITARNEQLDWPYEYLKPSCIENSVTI

These molecules were tested against Polyunsaturated fatty acid lipoxygenase ALOX12 (Homo sapiens) (UniProt P18054) (assay: Primary qHTS assay for inhibitors of human arachidonate 12S-lipoxygenase (ALOX12): Round 2). Details: purified 12hLO, xylenol orange hydroperoxide absorbance; activity change, negative = inhibition: at 108 µM (top of the series) unless noted.
Summary of the method: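 Hydroperoxide product was detected by ferrous iron/xylenol orange as the 573 to 405 nm absorbance ratio. Arachidonic acid at 40 uM (final) was turned over for 30 min at room temperature by 150 nM human 12hLO, pH 7.0 Hepes buffer, after 15 min compound preincubation.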
% is scaled to controls: 0 for no effect and ±100 for the full control effect; potency is read from the fitted curve at half-maximal effect.

Cn1c(=O)c2c(O)c(Cc3ccccc3)c(=O)[nH]c2n(C)c1=O was tested. Which Potency did it give?
Its Potency is “inactive”.

For CCOC(=O)/C=C/C(=O)Nc1ccc(S(=O)(=O)Nc2nccs2)cc1, which Potency is on record?
Its Potency is inconclusive: 35.5 µM [inhibitor, partial curve, poor fit].

Which Potency does the source give for O=[N+]([O-])c1ccccc1NC(=S)N/N=C/c1ccc(O)c(O)c1 here?
Its Potency is inconclusive: 112 µM [inhibitor, partial curve, poor fit].

How did the Potency turn out when O=C(CN1c2ccccc2Sc2ccccc21)N/N=C/c1ccc(Cl)cc1Cl was run?
The Potency was “inactive”.

Which Potency does the source give for Cc1ccc(NC(=O)c2nccnc2N)cc1I here?
The Potency was “inactive”.

For O=C(NC(c1ccc(Cl)cc1)c1ccccn1)C1CCN(CCOc2ccc(Cl)cc2Cl)CC1 (stereo not drawn), which Potency is on record?
The Potency was inconclusive: 5.62 µM [inhibitor, full curve, poor fit].

How did the Potency turn out when CNC(=O)COc1coc(CN2CCN(c3ccc(F)cc3)CC2)cc1=O was run?
Its Potency is “inactive”.

For Cc1cc(C)c(S(=O)(=O)N2CCN(C(=O)N3CCCCC3)CC2)c(C)c1, which Potency is on record?
The Potency was “inactive”.

For C=CCN1C=CC=C/C1=C1\SC(=S)N(C)C1=O, which Potency is on record?
The Potency was inconclusive: 50.1 µM [inhibitor, partial curve, poor fit].

O=C(CSc1nc(O)cc(=O)n1-c1ccccc1)Nc1ccc(Br)cn1 was tested. Which Potency did it give?
The Potency was inconclusive: 39.8 µM [inhibitor, partial curve].

With COc1ccc(CNC(=O)CCCN2C(=O)CSc3c2c(C)nn3-c2ccccc2)c(OC)c1 as the molecule, how does the activity change, negative = inhibition read?
The activity change, negative = inhibition was inconclusive: -32.5% [inhibitor].

How did the Potency turn out when CCCCCCCCN1C(=O)[C@H](CC(=O)N2CCCCC2)C[C@@]2(C(=O)OCC)CCCC=C12 was run?
The Potency was inconclusive: 112 µM [inhibitor, single point].

With COc1ccc(C(=O)NC(=S)Nc2ccc(S(=O)(=O)Nc3cc(OC)nc(OC)n3)cc2)cc1 as the molecule, how does the Potency read?
The Potency was active: 7.08 µM.

With N#C/C(=N\Nc1ccc(F)cc1)C(=N)N1CCCCC1 as the molecule, how does the Potency read?
The Potency was inconclusive: 0.891 µM [inhibitor, full curve, poor fit].

Which Potency does the source give for OC(COc1ccc2c(c1)OCO2)CN1CCN(c2ccccc2)CC1 (stereo not drawn) here?
The Potency was “inactive”.

CCN(CC(=O)Nc1cc(Cl)ccc1C)C(=O)CSCc1ccc(C)cc1 was tested. Which Potency did it give?
Its Potency is inconclusive: 44.7 µM [inhibitor, partial curve, poor fit].

COCC1CN(C(C)=O)CC12CCN(Cc1cccc(Cl)c1F)CC2 (stereo not drawn) was tested. Which Potency did it give?
Its Potency is inconclusive: 31.6 µM [inhibitor, full curve].

With Cc1ccc(-c2nn(C)c(=O)c3ccccc23)cc1S(=O)(=O)N1CCOCC1 as the molecule, how does the Potency read?
The Potency was inconclusive: 50.1 µM [inhibitor, partial curve, poor fit].

How did the Potency turn out when C[C@@H]1CN([C@@H](C)CO)C(=O)c2cc(C#Cc3ccccc3)cnc2O[C@H]1CN(C)C(=O)c1ccccc1F was run?
The Potency was inconclusive: 39.8 µM [inhibitor, partial curve, poor fit].

With Cc1ccc(C)c(/C(O)=C2/C(=O)C(=O)N(CCN3CCOCC3)C2c2ccco2)c1 (stereo not drawn) as the molecule, how does the Potency read?
Its Potency is inconclusive: 20 µM [inhibitor, partial curve, poor fit].

O=c1c(-c2nnc(SCc3ccc(Cl)cc3Cl)o2)cccn1Cc1ccccc1 was tested. Which Potency did it give?
Its Potency is inconclusive: 56.2 µM [inhibitor, partial curve, poor fit].

For COc1ccc(-c2n[nH]c(=S)n2Cc2ccco2)cc1, which Potency is on record?
The Potency was inconclusive: 25.1 µM [inhibitor, full curve, poor fit].

For O=C(Nc1ccnn1C1CCN(C/C=C/c2ccccc2)CC1)c1cccc(F)c1, which Potency is on record?
Its Potency is inconclusive: 39.8 µM [inhibitor, single point].

Which Potency does the source give for COc1cc(NC(=S)NC(=O)c2ccccc2C)ccc1NC(=O)c1cccs1 here?
Its Potency is inconclusive: 1.26 µM [inhibitor, full curve, poor fit].

How did the Potency turn out when O=C(O)c1ccccc1NS(=O)(=O)c1ccc(N/N=C/c2cccs2)c([N+](=O)[O-])c1 was run?
Its Potency is inconclusive: 56.2 µM [inhibitor, partial curve, poor fit].

With CC(C)(C)c1ccc(COC(=O)c2cc(=O)c3ccccc3o2)cc1 as the molecule, how does the Potency read?
The Potency was “inactive”.

Cn1nc(CC(=O)N2CCN(c3ccccc3)CC2)c2ccccc2c1=O was tested. Which Potency did it give?
Its Potency is inconclusive: 5.62 µM [inhibitor, single point].

For Cc1ccc(NS(=O)(=O)c2ccc3c(c2)NC(=O)C(C)C(=O)N3)c(Cl)c1 (stereo not drawn), which Potency is on record?
The Potency was inconclusive: 50.1 µM [inhibitor, single point].

For COC(=O)C1CN(Cc2cn(CCC3OCCO3)nn2)CCS(=O)(=O)N1Cc1ccccc1 (stereo not drawn), which Potency is on record?
Its Potency is inconclusive: 17.8 µM [inhibitor, full curve, poor fit].

For Cc1cccc(OCC(=O)Nc2ccccc2N2CCN(C)CC2)c1, which Potency is on record?
The Potency was “inactive”.

Which Potency does the source give for O=C(CCN1C(=O)NC2(CCCC2)C1=O)Nc1cccc2cccnc12 here?
Its Potency is “inactive”.

Cn1c(=O)[nH]cc(CC(=O)N2C[C@@H](C(=O)O)[C@H](c3ccncc3)C2)c1=O was tested. Which Potency did it give?
The Potency was inconclusive: 8.91 µM [inhibitor, full curve].

CCOC(=O)c1c(SCc2ccccc2)n[nH]c1N was tested. Which Potency did it give?
Its Potency is inconclusive: 50.1 µM [inhibitor, single point].

How did the Potency turn out when O=C1NC[C@H](CCCCN2C[C@H](Cc3ccc(O)cc3)N(CC3CCCCC3)C(=O)C2=O)N(CC2CCCCC2)C1=O was run?
Its Potency is active: 44.7 µM.

Which Potency does the source give for COc1ccc(C(=O)Nc2nc3c(s2)CCCC3)cc1S(=O)(=O)N1CCCc2ccccc21 here?
Its Potency is “inactive”.

With COC(=O)C1=C(C)NC(=O)NC1c1ccc(-c2ccc(Cl)cc2)o1 (stereo not drawn) as the molecule, how does the Potency read?
Its Potency is “inactive”.

For COc1ccc(C(=O)O)cc1NC(=S)NC(=O)CSc1ccc(Cl)cc1, which Potency is on record?
Its Potency is inconclusive: 28.2 µM [inhibitor, partial curve, poor fit].

How did the Potency turn out when COc1cccc(CC(=O)N2CCC(n3cc(-c4nc(-c5ccccc5)no4)nn3)CC2)c1 was run?
The Potency was “inactive”.

CCN(CC)CCN(C(=O)c1ccc(S(=O)(=O)N(C)C2CCCCC2)cc1)c1nc2c(C)cccc2s1 was tested. Which Potency did it give?
The Potency was inconclusive: 35.5 µM [inhibitor, partial curve, poor fit].

How did the Potency turn out when CCc1ccccc1NC(=O)CSC1=C(C#N)C2(CCC(C(C)(C)C)CC2)C(C#N)C(=O)N1 (stereo not drawn) was run?
The Potency was inconclusive: 63.1 µM [inhibitor, partial curve, poor fit].

With CCOc1ccc(CCNC(=O)CSc2n[nH]c(-c3ccccc3)n2)cc1OCC as the molecule, how does the Potency read?
Its Potency is inconclusive: 2.51 µM [inhibitor, full curve, poor fit].

For COc1ccccc1CNc1nc(-c2ccc(C(=O)N(C)C)cc2)nc2ccccc12, which Potency is on record?
Its Potency is “inactive”.

Which Potency does the source give for C/C(=N\N1C(=O)CSC1=S)c1ccc(Br)cc1 here?
The Potency was inconclusive: 50.1 µM [inhibitor, partial curve, poor fit].

Which Potency does the source give for COc1ccc(Cl)cc1NC(=O)C1CCN(c2nnc(C)c3c(C)n(-c4ccccc4)nc23)CC1 here?
Its Potency is “inactive”.

Which Potency does the source give for CC(=O)c1cc(-c2ccccc2)n(CC(=O)NC(C)(C)C)c1C here?
Its Potency is “inactive”.

How did the Potency turn out when O=C(Nc1nnc(SCc2ccc(F)cc2)s1)c1ccc2ncsc2c1 was run?
Its Potency is inconclusive: 50.1 µM [inhibitor, partial curve, poor fit].

How did the Potency turn out when COc1cccc(OC)c1C(=O)Nc1ccc(-c2nc3ccccc3o2)cc1 was run?
Its Potency is active: 39.8 µM.

For CCN(CC)C(=O)Cn1c(=O)n(CCC(=O)Nc2ccc(F)cc2)c(=O)c2sccc21, which Potency is on record?
The Potency was inconclusive: 44.7 µM [inhibitor, partial curve, poor fit].

Which Potency does the source give for CCNCc1cc(OCC)c(OCC(=O)NCCc2ccccc2)cc1Cl here?
The Potency was “inactive”.

How did the Potency turn out when CC(C)CN1CC2(CCN(C(=O)c3cccc(F)c3)CC2)C1 was run?
The Potency was inconclusive: 28.2 µM [inhibitor, single point].

Which Potency does the source give for COc1cccc(CSc2nc3n(n2)C(c2cccc(F)c2)C(C(=O)Nc2ccccc2C)=C(C)N3)c1 (stereo not drawn) here?
Its Potency is inconclusive: 158 µM [inhibitor, partial curve, poor fit].

CC(C)Oc1ccc(C(=O)NC(=S)Nc2ccc(Cl)c(C(=O)O)c2)cc1 was tested. Which Potency did it give?
Its Potency is active: 10 µM.

How did the Potency turn out when CN1CCC(=NNC(=O)c2ccco2)CC1 was run?
The Potency was inconclusive: 25.1 µM [inhibitor, single point].

O=C(COCC(=O)N1CCN(c2ccccc2)CC1)NCc1ccccc1 was tested. Which Potency did it give?
Its Potency is inconclusive: 44.7 µM [inhibitor, partial curve, poor fit].

Which Potency does the source give for Cc1cc(C(=O)CN2C(=O)C(=O)N(Cc3ccco3)C2=O)c(C)n1CCc1ccccc1 here?
The Potency was inconclusive: 25.1 µM [inhibitor, single point].

With CCOC(=O)c1c(C)[nH]c(C(=O)C(C)N(C)Cc2ccccc2Cl)c1C (stereo not drawn) as the molecule, how does the Potency read?
The Potency was inconclusive: 0.794 µM [inhibitor, full curve, poor fit].

Which Potency does the source give for CCS(=O)(=O)C1=NN2C(=N)/C(=C\c3ccc(OCCOc4cccc(OC)c4)c(OC)c3)C(=O)N=C2S1 here?
The Potency was inconclusive: 50.1 µM [inhibitor, partial curve, poor fit].

For COc1cc(NC(=O)Cc2cccc3ccccc23)c(C(=O)O)cc1OC, which activity change, negative = inhibition is on record?
Its activity change, negative = inhibition is inconclusive: -36.7% [inhibitor].

For COc1ccc(CNC(=O)c2cc3c(=O)n4ccccc4nc3n(CC3CCCO3)c2=N)cc1 (stereo not drawn), which Potency is on record?
The Potency was inconclusive: 31.6 µM [inhibitor, partial curve, poor fit].

Which Potency does the source give for Cn1c(Cc2cccc3ccccc23)nnc1SCC(=O)N1CCN(c2ccccc2)CC1 here?
Its Potency is inconclusive: 0.794 µM [inhibitor, full curve, poor fit].

How did the Potency turn out when CN(C)c1cc2c(cc1NS(=O)(=O)c1ccccc1)n(C)c(=O)n2C was run?
The Potency was inconclusive: 126 µM [inhibitor, partial curve, poor fit] and inconclusive: 35.5 µM [inhibitor, single point].

Cc1noc(C)c1CSc1ncnc2sc(C)c(C)c12 was tested. Which Potency did it give?
The Potency was “inactive”.

Which Potency does the source give for N=c1c(C(=O)NCCc2ccccc2)cc2c(=O)n3ccccc3nc2n1CC1CCCO1 (stereo not drawn) here?
The Potency was inconclusive: 39.8 µM [inhibitor, partial curve, poor fit].
